Results: paper PMC7956269
These are yes or no findings as the source states them, for the method shown. For part of these data: Binding seen in cells or lysates may run through a third protein. Some entries that bind do so weakly or less than the wild type. Tags and fused reporters may be left off the sequences shown.

Protein sequences, listed by entry. Tags and fused reporters are not part of them.
UniProt P70288: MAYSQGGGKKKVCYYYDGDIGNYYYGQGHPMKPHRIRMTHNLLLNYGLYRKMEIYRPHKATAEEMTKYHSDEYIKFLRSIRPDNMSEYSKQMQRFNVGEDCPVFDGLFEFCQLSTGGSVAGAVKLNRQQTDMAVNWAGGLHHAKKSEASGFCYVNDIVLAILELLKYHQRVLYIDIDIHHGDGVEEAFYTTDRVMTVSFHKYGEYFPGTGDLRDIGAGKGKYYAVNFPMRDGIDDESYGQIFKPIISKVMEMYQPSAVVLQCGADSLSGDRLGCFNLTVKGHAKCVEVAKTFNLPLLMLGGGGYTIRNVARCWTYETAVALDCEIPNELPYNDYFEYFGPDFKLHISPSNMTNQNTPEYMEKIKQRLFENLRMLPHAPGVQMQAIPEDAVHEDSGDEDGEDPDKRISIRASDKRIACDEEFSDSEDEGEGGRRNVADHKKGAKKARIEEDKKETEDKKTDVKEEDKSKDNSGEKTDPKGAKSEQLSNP
UniProt Q08288: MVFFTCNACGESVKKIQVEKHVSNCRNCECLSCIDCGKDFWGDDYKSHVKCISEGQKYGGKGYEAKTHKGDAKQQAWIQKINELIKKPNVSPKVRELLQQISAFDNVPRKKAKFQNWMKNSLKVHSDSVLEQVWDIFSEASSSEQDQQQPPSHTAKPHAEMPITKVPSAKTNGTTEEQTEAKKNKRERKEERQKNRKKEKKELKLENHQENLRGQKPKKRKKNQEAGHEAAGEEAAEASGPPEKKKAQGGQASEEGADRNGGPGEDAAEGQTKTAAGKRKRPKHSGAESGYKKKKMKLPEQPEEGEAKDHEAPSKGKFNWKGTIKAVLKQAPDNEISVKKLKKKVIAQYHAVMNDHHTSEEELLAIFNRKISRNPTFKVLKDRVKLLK

Tests used:
[1] = target: HA-FOXC1 (in F9 cells) (mouse) (UniProt Q61572); assay: ChIP-reChIP; F9 cells co-overexpressing HA-FOXC1 and 3*Flag-HDAC2, 48 h; formaldehyde-fixed chromatin; first round anti-HA (or IgG), eluted, second round anti-Flag; Q-RT-PCR of region P3 of the Nanog promoter
3*Flag-FOXC1 (mouse) = 3*Flag-FOXC1 (mouse) (UniProt Q61572); assay: co-IP; HEK293T cells co-transfected; lysate in Pierce IP Lysis Buffer; anti-Flag antibody (IgG as control), protein A/G agarose, 4 °C; blots with anti-GFP and anti-HA

Substance | binding [1] | binding (3*Flag-FOXC1 (mouse))
3*Flag-HDAC2 (in F9 cells) (from UniProt P70288 1-488) | binds | –
GFP-HDAC2 (from UniProt P70288 1-488) | – | binds
GFP-LYAR (from UniProt Q08288 1-388) | – | binds
